From PMC8970680
Results are given in words; binding and its absence hold for the method and conditions named. Binding seen in cells or lysates may run through a third protein.

Molecular target: T1, pleiotrophin (rat (endogenous in primary rat differentiating immature OLs)) (UniProt P63090)
T1 sequence: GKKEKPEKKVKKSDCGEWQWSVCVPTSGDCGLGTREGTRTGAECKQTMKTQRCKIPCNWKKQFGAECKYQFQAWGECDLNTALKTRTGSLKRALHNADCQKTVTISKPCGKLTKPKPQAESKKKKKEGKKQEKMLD
Experiment: co-IP; endogenous proteins in lysate of primary rat differentiating immature OLs; precipitated with PTN (2 ug antibody overnight, Protein A/G Plus agarose beads, 4°C); co-IP buffer 50 mM Tris-HCl pH 7.5, 150 mM NaCl, 1% Triton X-100, 1 mM EDTA; blots for the receptors

- binding: no binding
Substance: anaplastic lymphoma receptor tyrosine kinase
